Measurements taken from US20170343557A1, “USE OF 5-METHOXYTRYPTOPHAN AS DIAGNOSTIC AGENT OF INFLAMMATORY DISEASES” (NATIONAL HEALTH RESEARCH INSTITUTES, priority 2014, published 2017).

Test: Serum 5-MTP in murine sepsis model (LPS infusion)
Assay type: in vivo, C57BL/6 mice
Conditions: n=8

COc1ccc2[nH]cc(C[C@H](N)C(=O)O)c2c1 [5-MTP, 5-methoxytryptophan]
Serum 5-MTP level (mice 24 h after LPS infusion): 0.036 µM | Average serum 5-MTP level (mice prior to LPS treatment): 0.187 µM
